Patent US20220259297A1
No constants are given. Whether binding was seen depends on the method and setting. Some binding calls cover weakened binding; strength is not graded here. Where a sequence is shown, tags or fusion partners need not be part of it.

Amino acid sequences for entries named in this document (tags omitted). Residues count along the entry.
UniProt P22003, residues 317-454: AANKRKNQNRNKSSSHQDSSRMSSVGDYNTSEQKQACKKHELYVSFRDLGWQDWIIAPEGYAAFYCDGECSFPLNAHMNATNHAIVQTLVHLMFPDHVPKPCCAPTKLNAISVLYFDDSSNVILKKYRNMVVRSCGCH
UniProt P22004, residues 382-513: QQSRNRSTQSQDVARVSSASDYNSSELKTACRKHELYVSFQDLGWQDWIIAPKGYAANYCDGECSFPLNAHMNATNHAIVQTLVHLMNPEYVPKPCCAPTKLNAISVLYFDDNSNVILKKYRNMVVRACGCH

Experiments:
[1] = molecular target: GDF8, O14793; assay: Biacore (SPR), ligands ranked by off-rate koff; conditions: remark: other sources report otherwise
[2] = molecular target: T1, BMP10 (UniProt O95393); assay: SPR (Biacore), FIG. 53
T1 sequence (looked up): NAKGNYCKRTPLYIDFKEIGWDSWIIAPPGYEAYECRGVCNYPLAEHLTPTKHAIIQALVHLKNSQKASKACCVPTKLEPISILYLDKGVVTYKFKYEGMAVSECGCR

[3] = molecular target: T1, BMP10; assay: Biacore (SPR), ligands ranked by off-rate koff
[4] = molecular target: T2, BMP15 (UniProt O95972); assay: Biacore (SPR), ligands ranked by off-rate koff
T2 sequence (looked up): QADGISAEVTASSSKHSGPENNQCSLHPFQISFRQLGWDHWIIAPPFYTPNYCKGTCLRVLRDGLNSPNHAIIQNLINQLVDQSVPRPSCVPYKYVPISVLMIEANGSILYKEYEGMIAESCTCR

[5] = molecular target: T1, BMP10; assay: SPR (Biacore)
[6] = molecular target: BMP5 (UniProt P22003); assay: SPR (Biacore)
[7] = molecular target: BMP6 (UniProt P22004); assay: SPR (Biacore)
[8] = molecular target: T3, BMP9 (UniProt Q9UK05); assay: SPR (Biacore)
T3 sequence (looked up): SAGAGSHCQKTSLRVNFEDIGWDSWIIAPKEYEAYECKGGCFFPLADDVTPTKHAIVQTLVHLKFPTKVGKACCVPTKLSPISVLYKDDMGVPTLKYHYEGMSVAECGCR

[9] = molecular target: T4, GDF11 (UniProt O95390); assay: SPR (Biacore)
T4 sequence (looked up): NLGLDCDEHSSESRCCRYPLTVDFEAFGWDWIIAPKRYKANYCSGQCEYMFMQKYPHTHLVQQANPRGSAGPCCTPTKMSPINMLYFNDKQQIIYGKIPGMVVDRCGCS

[10] = molecular target: T5, GDF3 (UniProt Q9NR23); assay: SPR (Biacore)
T5 sequence (looked up): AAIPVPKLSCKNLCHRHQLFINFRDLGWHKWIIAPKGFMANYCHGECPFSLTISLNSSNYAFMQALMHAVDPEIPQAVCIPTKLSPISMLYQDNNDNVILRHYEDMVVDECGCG

[11] = molecular target: T6, GDF8 (UniProt O14793); assay: SPR (Biacore)
T6 sequence (looked up): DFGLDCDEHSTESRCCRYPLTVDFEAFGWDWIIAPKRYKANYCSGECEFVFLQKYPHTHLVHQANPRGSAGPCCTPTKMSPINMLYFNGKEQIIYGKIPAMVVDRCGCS

[12] = molecular target: T7, activin B (UniProt P09529); assay: SPR (Biacore)
T7 sequence (looked up): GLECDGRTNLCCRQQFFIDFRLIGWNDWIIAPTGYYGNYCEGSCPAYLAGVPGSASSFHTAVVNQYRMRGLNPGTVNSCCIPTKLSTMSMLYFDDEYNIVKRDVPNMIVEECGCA

[13] = molecular target: BMP6 (UniProt P22004); assay: SPR (Biacore), FIG. 12
[14] = molecular target: T4, GDF11; assay: SPR (Biacore), FIG. 12
[15] = molecular target: T6, GDF8; assay: SPR (Biacore), FIG. 12
[16] = molecular target: T1, BMP10; assay: SPR (Biacore), FIG. 15
[17] = molecular target: BMP5 (UniProt P22003); assay: SPR (Biacore), FIG. 15
[18] = molecular target: BMP6 (UniProt P22004); assay: SPR (Biacore), FIG. 15
[19] = molecular target: T3, BMP9; assay: SPR (Biacore), FIG. 15
[20] = molecular target: T4, GDF11; assay: SPR (Biacore), FIG. 15
[21] = molecular target: T5, GDF3; assay: SPR (Biacore), FIG. 15
[22] = molecular target: T6, GDF8; assay: SPR (Biacore), FIG. 15
[23] = molecular target: T7, activin B; assay: SPR (Biacore), FIG. 15

Measured: binding

B1: ALK4-Fc homodimer, P36896 24-126 (Fc fusion, not shown: a dimerising Fc or GST)
chain: SGPRGVQALLCACTSCLQANYTCETDGACMVSIFNLDGMEHHVRTCIPKVELVPAGKPFYCLSSEDLRNTHCCYTDYCNRIDLRVPSGHLKEPEHPSMWGPVE
binds: [1]

B2: BMPRII-Fc homodimer (Fc fusion, not shown: a dimerising Fc or GST)
chain: SQNQERLCAFKDPYQQDLGIGESRISHENGTILCSKGSTCYGLWEKSKGDINLVKQGCWSHIGDPQECHYEECVVTTTPPSIQNGTYRFCCCSTDLCNVNFTENFPPPDTTPLSPPHSFNRDET
binds: [2] | [3] | [4]

B3: ActRIIB-Fc homodimer (Fc fusion, not shown: a dimerising Fc or GST)
chain: SGRGEAETRECIYYNANWELERTNQSGLERCEGEQDKRLHCYASWRNSSGTIELVKKGCWLDDFNCYDRQECVATEENPQVYFCCCEGNFCNERFTHLPEAGGPEVTYEPPPTAPTLLT
binds: [5] | [6] | [7] | [8] | [9] | [10] | [11] | [12] | [13] | [14] | [15] | [16] | [17] | [18] | [19] | [20] | [21] | [22] | [23]
